Numbering of substitutions follows the chain as printed. In names and notes the source's numbering stands. These are yes or no findings as the source states them, for the method shown.
Target: T1, mature ectodomain of ICA512 (ME ICA512), wild type, residues 470 to 558 (human) (UniProt Q16849)
T1 sequence: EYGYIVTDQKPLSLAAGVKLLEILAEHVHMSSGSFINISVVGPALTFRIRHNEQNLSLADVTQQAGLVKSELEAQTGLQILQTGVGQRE
Test: SEC; Superose 12, 20°C, 20 mM sodium phosphate, 150 mM NaCl, pH 7.0; each variant injected at 500 µM in 100 µl, alone or preincubated and injected together; both purified

B1: S508A ME ICA512 (domain or fragment, UniProt Q16849 470-558)
chain: T1 sequence with S39A
binding: no binding (tested: 500 µM of each injected)
